Reference: article PMC6021170
Where a chain is given by its changes, count along the chain named. No constants are given. Whether binding was seen depends on the method and setting. In cells and extracts the contact can be indirect. Some entries that bind do so weakly or less than the wild type.

Amino acid sequences for entries named in this document (tags omitted). Residues count along the entry.
UniProt P11021, residues 19-654: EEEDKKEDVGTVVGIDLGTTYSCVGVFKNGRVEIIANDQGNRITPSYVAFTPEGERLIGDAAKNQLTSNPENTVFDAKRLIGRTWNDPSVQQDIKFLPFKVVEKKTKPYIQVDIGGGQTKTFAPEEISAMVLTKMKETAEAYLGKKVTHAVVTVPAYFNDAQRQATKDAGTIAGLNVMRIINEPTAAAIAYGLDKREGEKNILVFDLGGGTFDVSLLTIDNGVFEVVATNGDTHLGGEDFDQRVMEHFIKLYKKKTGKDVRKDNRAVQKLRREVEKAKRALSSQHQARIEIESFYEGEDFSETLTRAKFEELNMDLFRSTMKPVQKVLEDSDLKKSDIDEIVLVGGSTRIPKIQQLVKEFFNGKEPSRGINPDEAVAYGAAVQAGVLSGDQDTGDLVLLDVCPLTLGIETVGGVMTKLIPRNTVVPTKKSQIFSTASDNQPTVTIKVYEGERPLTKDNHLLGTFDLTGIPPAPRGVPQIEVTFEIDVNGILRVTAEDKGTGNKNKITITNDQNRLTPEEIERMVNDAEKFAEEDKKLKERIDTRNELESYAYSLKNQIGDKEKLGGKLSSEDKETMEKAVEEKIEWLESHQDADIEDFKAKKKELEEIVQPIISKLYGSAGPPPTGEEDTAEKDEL
UniProt P07237, residues 18-508: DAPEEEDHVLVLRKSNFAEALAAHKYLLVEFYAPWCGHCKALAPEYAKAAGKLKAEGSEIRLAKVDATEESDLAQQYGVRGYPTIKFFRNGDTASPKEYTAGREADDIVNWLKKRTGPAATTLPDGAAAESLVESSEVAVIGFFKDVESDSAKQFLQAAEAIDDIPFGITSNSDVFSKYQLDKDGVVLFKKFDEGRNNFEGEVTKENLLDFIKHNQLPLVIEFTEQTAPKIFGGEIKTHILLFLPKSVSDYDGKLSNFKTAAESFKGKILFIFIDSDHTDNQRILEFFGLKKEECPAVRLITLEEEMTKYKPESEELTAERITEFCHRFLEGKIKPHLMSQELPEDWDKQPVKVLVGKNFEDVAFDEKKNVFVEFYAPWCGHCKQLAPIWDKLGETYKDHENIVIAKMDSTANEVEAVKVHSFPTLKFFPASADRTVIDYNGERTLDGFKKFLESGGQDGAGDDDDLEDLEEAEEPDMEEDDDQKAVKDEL

T1: human corin WT (human) (UniProt Q9Y5Q5)
T1 sequence: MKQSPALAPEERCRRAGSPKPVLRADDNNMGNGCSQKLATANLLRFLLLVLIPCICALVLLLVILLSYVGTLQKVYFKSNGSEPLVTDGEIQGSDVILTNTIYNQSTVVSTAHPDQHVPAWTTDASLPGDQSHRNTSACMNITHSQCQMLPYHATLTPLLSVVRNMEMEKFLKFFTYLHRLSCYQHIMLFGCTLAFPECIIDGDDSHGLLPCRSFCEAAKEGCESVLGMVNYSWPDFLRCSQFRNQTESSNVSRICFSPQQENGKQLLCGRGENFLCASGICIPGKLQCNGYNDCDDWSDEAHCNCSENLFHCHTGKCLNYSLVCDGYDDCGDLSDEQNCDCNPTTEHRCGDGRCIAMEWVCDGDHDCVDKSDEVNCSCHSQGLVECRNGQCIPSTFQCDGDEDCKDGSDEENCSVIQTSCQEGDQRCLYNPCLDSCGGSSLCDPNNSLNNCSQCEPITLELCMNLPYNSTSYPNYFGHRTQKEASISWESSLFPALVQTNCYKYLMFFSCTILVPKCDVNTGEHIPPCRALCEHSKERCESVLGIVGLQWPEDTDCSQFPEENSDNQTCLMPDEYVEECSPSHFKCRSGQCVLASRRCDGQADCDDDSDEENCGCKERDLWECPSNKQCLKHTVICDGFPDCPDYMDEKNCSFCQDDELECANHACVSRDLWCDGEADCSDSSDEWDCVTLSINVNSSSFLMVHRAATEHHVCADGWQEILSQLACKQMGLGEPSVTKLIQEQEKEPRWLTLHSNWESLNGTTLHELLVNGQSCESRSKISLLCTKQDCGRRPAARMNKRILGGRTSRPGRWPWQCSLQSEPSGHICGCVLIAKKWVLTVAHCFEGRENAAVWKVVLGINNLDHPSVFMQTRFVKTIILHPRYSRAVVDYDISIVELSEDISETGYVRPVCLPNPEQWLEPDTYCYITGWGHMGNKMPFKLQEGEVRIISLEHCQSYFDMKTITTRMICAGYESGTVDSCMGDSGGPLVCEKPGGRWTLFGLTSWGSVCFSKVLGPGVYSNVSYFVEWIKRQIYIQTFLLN

T2: human corin mutant N1022Q (human) (UniProt Q9Y5Q5)
T2 sequence: T1 sequence with N1022Q

B1: calnexin (protein, UniProt P27824 21-592)
chain: HDGHDDDVIDIEDDLDDVIEEVEDSKPDTTAPPSSPKVTYKAPVPTGEVYFADSFDRGTLSGWILSKAKKDDTDDEIAKYDGKWEVEEMKESKLPGDKGLVLMSRAKHHAISAKLNKPFLFDTKPLIVQYEVNFQNGIECGGAYVKLLSKTPELNLDQFHDKTPYTIMFGPDKCGEDYKLHFIFRHKNPKTGIYEEKHAKRPDADLKTYFTDKKTHLYTLILNPDNSFEILVDQSVVNSGNLLNDMTPPVNPSREIEDPEDRKPEDWDERPKIPDPEAVKPDDWDEDAPAKIPDEEATKPEGWLDDEPEYVPDPDAEKPEDWDEDMDGEWEAPQIANPRCESAPGCGVWQRPVIDNPNYKGKWKPPMIDNPSYQGIWKPRKIPNPDFFEDLEPFRMTPFSAIGLELWSMTSDIFFDNFIICADRRIVDDWANDGWGLKKAADGAAEPGVVGQMIEAAEERPWLWVVYILTVALPVFLVILFCCSGKKQTSGMEYKKTDAPQPDVKEEEEEKEEEKDKGDEEEEGEEKLEEKQKSDAEEDGGTVSQEEEDRKPKAEEDEILNRSPRNRKPRRE

Assays:
human corin WT (human) = biological target: T1, human corin WT (human); assay: co-IP; lysates of transfected HEK293 cells immunoprecipitated with anti-V5 antibody and protein A-Sepharose; co-precipitated endogenous chaperones detected by western blotting and densitometry; cells without or with DNJ (2 mM, 37°C, 24-48 hr)
[1] = biological target: T2, human corin mutant N1022Q (human); assay: as above

Molecule | binding (human corin WT (human)) | binding [1]
BiP (binding immunoglobulin protein) (from UniProt P11021 19-654) | binds | –
calreticulin (from UniProt P27797 18-417) | binds | binds
protein disulfide isomerase (from UniProt P07237 18-508) | binds | binds
B1 | binds | –
